Results from PubChem BioAssay AID540256 (National Center for Advancing Translational Sciences (NCATS), 2011).
Screen size: about 300,000 compounds; about 3,700 (1.2%) were called active. This list was built around the results that the source calls inconclusive (neither active nor inactive); the mix of calls is not that of the screen. Calls follow the shape of the full dose curve; tested in HEK293 cells. Where the call is inconclusive, the potency comes from a doubtful curve fit.

experiment: qHTS for Inhibitors of binding or entry into cells for Lassa Virus; details: Lassa virus pseudotype entry inhibition, cell reporter; activity change, negative = inhibition: at 37.9 µM (top of the series) unless noted; also: nearly all actives have a fitted effect of over 50% in size
% is scaled to controls: 0 for no effect and ±100 for the full control effect; potency is read from the fitted curve at half-maximal effect.

For `c1ccc(CN2CCN(c3nc4ccccc4s3)CC2)cc1`, which Potency is on record?
The Potency was inconclusive: 0.562 µM [activator, full curve, poor fit].

Which Potency does the source give for `Cc1cccc(C)c1NC(=O)CSc1nnc(Cn2nnc(-c3ccccc3)n2)n1-c1ccccc1` here?
Its Potency is inconclusive: 0.0052 µM [inhibitor, full curve, poor fit].

For `COc1ccccc1C(=O)Nc1cccc(OCc2cc(=O)n3ccccc3n2)c1`, which “activity change, negative = inhibition” value is on record?
Its value is inactive: -8.75% [at 46.1 µM].

For `O=C1NC2(CCC3(CC2)OCCO3)NN1c1ccccc1`, which Potency is on record?
Its Potency is inconclusive: 7.94 µM [inhibitor, partial curve, poor fit].

With `CCSc1ccccc1C(=O)N1CCN(c2nc3ccccc3s2)CC1` as the compound, how does the “activity change, negative = inhibition” value read?
Its value is inactive: -26.5% [at 46.1 µM].

For `C=CCNC(=O)c1ccc(-n2cccc2)cc1`, which Potency is on record?
The Potency was inconclusive: 35.5 µM [activator, single point].

For `CC(=O)c1ccc(NC(=O)N[C@@H](Cc2ccccc2)C(=O)O)cc1`, which Potency is on record?
The Potency was inconclusive: 29.1 µM [activator, single point].

Which Potency does the source give for `CC(C)(C)c1ccc(-c2noc(C(=O)NN)n2)cc1` here?
Its Potency is inconclusive: 35.5 µM [inhibitor, partial curve, poor fit].

Which “activity change, negative = inhibition” value does the source give for `O=C(COc1ccc(F)cc1)N1CCCCCCC1` here?
Its value is inactive: 12.6% [at 46.1 µM].

For `Cc1cc(Cl)ccc1NC(=O)CN1CCN(C(=O)c2ccco2)CC1`, which Potency is on record?
The Potency was inconclusive: 4.11 µM [inhibitor, partial curve].

Which Potency does the source give for `O=C(O)c1ccc(/C=N/Nc2nc3ccccc3[nH]2)cc1` here?
Its Potency is inconclusive: 35.5 µM [activator, single point].

Which Potency does the source give for `Cc1ccc(/C=C/C(=O)c2ccccc(=O)c2O)cc1C` here?
Its Potency is inconclusive: 20 µM [inhibitor, single point].

For `CC(=O)Nc1cccc(NC(=O)CSc2nnc3ccc(-c4ccccn4)nn23)c1`, which Potency is on record?
The Potency was inconclusive: 35.5 µM [activator, single point].

Which Potency does the source give for `COc1cc(NC(=S)NCCC(c2ccccc2)c2ccccc2)c(OC)cc1Cl` here?
Its Potency is inconclusive: 12.6 µM [inhibitor, partial curve, poor fit].

With `Cc1sc2nc(C(C)C)nc(SCC(=O)N3c4ccccc4CC3C)c2c1C` (centres undefined) as the compound, how does the Potency read?
The Potency was inconclusive: 14.1 µM [inhibitor, partial curve, poor fit].

Which Potency does the source give for `O=C(O)c1ccc(/C=C/c2nc3ccccc3c(=O)n2-c2ccc(Br)cc2)cc1` here?
Its Potency is inconclusive: 15.8 µM [inhibitor, single point].

With `Cc1c(Cl)cccc1NC(=O)Nc1c[nH]c(=O)[nH]c1=O` as the compound, how does the “activity change, negative = inhibition” value read?
The value was inactive: 24.8% [at 46.1 µM].

With `NC(=O)c1ccc(OCc2ccccc2)nc1` as the compound, how does the “activity change, negative = inhibition” value read?
Its value is inactive: 19.7%.

For `COc1cc(/C=C(/C#N)c2nc(-c3cc4ccccc4oc3=O)cs2)ccc1O`, which Potency is on record?
Its Potency is inconclusive: 7.08 µM [inhibitor, full curve, poor fit].

For `Cc1cccc(N(CC(=O)NCc2ccco2)C(=O)CCC(=O)Nc2ccccn2)c1C`, which “activity change, negative = inhibition” value is on record?
Its value is inactive: 13.6% [at 46.1 µM].

Which Potency does the source give for `COc1ccc(C(=O)NN=C(Cc2ccccc2)Cc2ccccc2)cc1OC` here?
The Potency was inconclusive: 16.4 µM [inhibitor, single point].

With `Nc1nc(-c2ccc(F)cc2)cc(C(F)(F)F)n1` as the compound, how does the Potency read?
The Potency was inconclusive: 35.5 µM [inhibitor, single point].

With `COCCNC(=O)c1ccc(-n2c(SCc3ccncc3)nc3ccccc3c2=O)cc1` as the compound, how does the “activity change, negative = inhibition” value read?
Its value is inactive: -4.4%.

With `COc1ccc(-c2ccc(SCC(=O)c3cccs3)nn2)cc1` as the compound, how does the Potency read?
Its Potency is inconclusive: 1.41 µM [activator, partial curve, poor fit].

Which “activity change, negative = inhibition” value does the source give for `COc1cccc(CNC(=O)Cn2c(=O)ccc3cc(S(=O)(=O)N4CCCC4)ccc32)c1` here?
The value was inactive: 23.2% [at 46.1 µM].

Which “activity change, negative = inhibition” value does the source give for `O=C(NCCc1ccc(F)cc1)c1cccs1` here?
Its value is inactive: 10.6%.

Which Potency does the source give for `O=S(=O)(c1ccc(NC(=S)NN=Cc2ccccc2O)cc1)N1CCCCC1` here?
Its Potency is active: 6.31 µM.

For `COc1cc([N+](=O)[O-])ccc1NC(=S)Nc1cc(C(=O)OC(C)C)cc(C(=O)OC(C)C)c1`, which Potency is on record?
Its Potency is inconclusive: 35.5 µM [inhibitor, single point].

With `CCCc1cc(=O)[nH]c(SCC(=O)Nc2ccc(OC(F)F)cc2)n1` as the compound, how does the Potency read?
Its Potency is inconclusive: 14.1 µM [activator, single point].

For `COCCn1c(COc2ccc(C)cc2)nc2ccccc21`, which Potency is on record?
The Potency was inconclusive: 10 µM [activator, partial curve, poor fit].

With `Cc1cc(NC(=O)CCl)no1` as the compound, how does the Potency read?
The Potency was inconclusive: 10 µM [inhibitor, partial curve, poor fit].

Which “activity change, negative = inhibition” value does the source give for `Cc1ccc(S(=O)(=O)Oc2ccc3c(c2)O/C(=C\c2cccnc2)C3=O)cc1` here?
Its value is inactive: -0.342%.

For `Cc1cc2nc(C3CCN(Cc4nnnn4Cc4cccs4)CC3)[nH]c2cc1C`, which Potency is on record?
The Potency was inconclusive: 3.66 µM [inhibitor, full curve, poor fit].

Which Potency does the source give for `CCN1CCN(c2ncc3c(n2)CC(c2ccc(OC)c(OC)c2)CC3=O)CC1` (centres undefined) here?
The Potency was inconclusive: 11.6 µM [inhibitor, partial curve].

Which Potency does the source give for `CCOC(=O)c1sc(NC(=O)CSc2n[nH]c(C)n2)nc1C` here?
The Potency was inconclusive: 29.1 µM [inhibitor, single point].

With `CSc1cccc(-n2nnc(-c3nsc(NC(=O)c4cccs4)n3)c2C)c1` as the compound, how does the Potency read?
The Potency was inconclusive: 1.41 µM [activator, partial curve, poor fit].

For `CC1(CNC(=O)C(=O)NCC2(C)CO2)CO1` (centres undefined), which Potency is on record?
Its Potency is inconclusive: 6.31 µM [inhibitor, full curve].

Which Potency does the source give for `COc1ccc(S(=O)(=O)N2CCN(Cc3ccccc3)CC2)cc1` here?
The Potency was inconclusive: 0.0041 µM [activator, full curve, poor fit].

Which Potency does the source give for `CC1CCCN(Cc2nc3c(c(=O)n(C)c(=O)n3C)n2CCCc2ccccc2)C1` (centres undefined) here?
Its Potency is inconclusive: 20 µM [inhibitor, partial curve, poor fit].

Which “activity change, negative = inhibition” value does the source give for `O=C(CSc1nc2ccc(NC(=O)CSc3nnnn3Cc3ccccc3)cc2s1)Nc1ccccc1` here?
Its value is inactive: -7.38%.

For `CSC(=NC#N)N1CCN(c2c(C)cccc2C)CC1`, which Potency is on record?
The Potency was inconclusive: 12.6 µM [inhibitor, single point].

For `CO/C([O-])=N/c1c[n+](-c2ccc(C)cc2)no1`, which “activity change, negative = inhibition” value is on record?
The value was inactive: 28.3%.

With `CC(C)=NOc1cc(NC(=O)CCl)cc([N+](=O)[O-])c1` as the compound, how does the Potency read?
Its Potency is active: 17.8 µM.

For `O=S(=O)(CCSc1nc2ccccc2o1)c1nc2ccccc2s1`, which Potency is on record?
Its Potency is inconclusive: 29.1 µM [inhibitor, single point].

With `COc1cc(C(C)=O)ccc1Oc1ncnc2c1cnn2-c1ccc(F)cc1` as the compound, how does the “activity change, negative = inhibition” value read?
Its value is inactive: -5.81%.

Which “activity change, negative = inhibition” value does the source give for `CSc1cccc(NC(C)=O)c1` here?
Its value is inactive: 0.644%.

Which “activity change, negative = inhibition” value does the source give for `Cc1ccccc1CNC(=O)Cn1nc(C)c2nn(-c3ccc(Cl)cc3)c(C)c2c1=O` here?
Its value is inactive: -1.65% [at 46.1 µM].

For `Cc1ccnc(SCCn2c(N3CC(C)OC(C)C3)nc3c2c(=O)n(C)c(=O)n3C)n1` (centres undefined), which Potency is on record?
Its Potency is inconclusive: 35.5 µM [activator, single point].

Which Potency does the source give for `CCOc1ccc(OCCC(=O)OCC(=O)N2CCN(S(=O)(=O)c3ccc(Cl)cc3)CC2)cc1` here?
The Potency was inconclusive: 10 µM [inhibitor, partial curve, poor fit].

Which Potency does the source give for `COc1ccc(-c2csc(-n3cccn3)n2)cc1` here?
Its Potency is inconclusive: 0.447 µM [activator, partial curve, poor fit].

Which “activity change, negative = inhibition” value does the source give for `O=C(COc1nsnc1N1CCOCC1)Nc1ccc([N+](=O)[O-])cc1` here?
Its value is inactive: 9.97% [at 46.1 µM].

Which Potency does the source give for `O=C(Nc1cccc([N+](=O)[O-])c1)c1ccc2c(c1)OCCO2` here?
Its Potency is inconclusive: 0.231 µM [activator, full curve, poor fit].

With `O=C(NCCc1ccc(C(F)(F)F)cc1)C1CCC(=O)N(CCc2cccc(F)c2)C1` (centres undefined) as the compound, how does the “activity change, negative = inhibition” value read?
Its value is inactive: 13.8%.

Which Potency does the source give for `COc1ccc(/C=C/C(=O)NCc2c(C)nn(C)c2C)cc1COc1ccc(Br)cc1` here?
Its Potency is inconclusive: 16.4 µM [inhibitor, partial curve].

Which Potency does the source give for `CCCCOc1cccc(C(=O)NC(=S)Nc2cccc(C(F)(F)F)c2)c1` here?
Its Potency is inconclusive: 35.5 µM [inhibitor, single point].

With `CC1CCC(N2CC(=O)N(Cc3ccc4c(c3)OCO4)C(c3ccc(F)cc3)C2=O)CC1` (centres undefined) as the compound, how does the Potency read?
Its Potency is inconclusive: 18.3 µM [inhibitor, single point].

Which “activity change, negative = inhibition” value does the source give for `COc1ccc(Cl)cc1C(=O)Nc1ccc2nc3n(c(=O)c2c1)CCCC3` here?
The value was inactive: -3.99%.

With `O=C(CSc1ccc2c(c1)OCCO2)NCc1ccccc1` as the compound, how does the “activity change, negative = inhibition” value read?
The value was inactive: 1.86%.

For `CCn1c(SCC(=O)N2c3ccccc3Sc3ccccc32)nc2c1c(=O)n(C)c(=O)n2C`, which Potency is on record?
Its Potency is inconclusive: 18.3 µM [inhibitor, single point].

With `Cc1ccc(C(=O)Nc2cccc(-c3ccc(N4CCOCC4)nn3)c2)cc1` as the compound, how does the Potency read?
The Potency was inconclusive: 0.282 µM [activator, full curve, poor fit].

For `Fc1ccccc1COc1cccc2cccnc12`, which Potency is on record?
Its Potency is inconclusive: 0.708 µM [activator, full curve, poor fit].

Which “activity change, negative = inhibition” value does the source give for `COCc1cc(C2SCC(=O)Nc3c2c(=O)[nH]n3C(C)C)ccc1OC` (centres undefined) here?
Its value is inactive: 1.16%.

For `Cn1c(=O)n(C)c2cc([N+](=O)[O-])c(N3CCN(C(=O)c4ccccc4)CC3)cc21`, which “activity change, negative = inhibition” value is on record?
The value was inactive: -15.3%.

Which Potency does the source give for `COc1ccc(NS(=O)(=O)c2cc(NC(=O)c3cccs3)ccc2N2CCCC2)cc1` here?
Its Potency is inconclusive: 2.06 µM [inhibitor, partial curve].

Which Potency does the source give for `Cc1nc2ncnn2c(C)c1Cc1ccc(Cl)cc1` here?
The Potency was inconclusive: 35.5 µM [activator, partial curve, poor fit].

Which Potency does the source give for `CC=CC1=Cc2ccccc2C(C(C(=O)OC)C(=O)OC)N1C(=O)OC` (centres undefined) here?
The Potency was inconclusive: 6.68 µM [inhibitor, single point].

For `Cc1ccc(CNc2nc(-c3ccco3)nn2C(=O)c2ccccc2[N+](=O)[O-])cc1`, which Potency is on record?
The Potency was inconclusive: 6.31 µM [activator, partial curve].

For `COc1ccc(/C=N/n2c(SC)nnc2-c2ccccc2)c(OC)c1OC`, which Potency is on record?
The Potency was active: 3.55 µM.

For `Cn1cnc([N+](=O)[O-])c1Sc1ccc(Br)cc1`, which Potency is on record?
Its Potency is inconclusive: 9.2 µM [inhibitor, partial curve, poor fit].
